# Inconclusive means that the source gave no clear call. Such entries were picked first, then a sample of the others. A potency beside an inconclusive call is a rough fit, not a confirmed value. The source made the active and inactive calls. The call rests on the fitted dose curve; in most records, active means well fitted inhibition curve with a large enough effect; inconclusive means small, poorly fitted or top-dose-only effect; inactive means no such curve, though single readings can be large or run the other way.
# Amino acid sequences for entries named in this document (tags omitted). A change or cut given only in a name is not applied to a line headed by its entry.
# UniProt P51659: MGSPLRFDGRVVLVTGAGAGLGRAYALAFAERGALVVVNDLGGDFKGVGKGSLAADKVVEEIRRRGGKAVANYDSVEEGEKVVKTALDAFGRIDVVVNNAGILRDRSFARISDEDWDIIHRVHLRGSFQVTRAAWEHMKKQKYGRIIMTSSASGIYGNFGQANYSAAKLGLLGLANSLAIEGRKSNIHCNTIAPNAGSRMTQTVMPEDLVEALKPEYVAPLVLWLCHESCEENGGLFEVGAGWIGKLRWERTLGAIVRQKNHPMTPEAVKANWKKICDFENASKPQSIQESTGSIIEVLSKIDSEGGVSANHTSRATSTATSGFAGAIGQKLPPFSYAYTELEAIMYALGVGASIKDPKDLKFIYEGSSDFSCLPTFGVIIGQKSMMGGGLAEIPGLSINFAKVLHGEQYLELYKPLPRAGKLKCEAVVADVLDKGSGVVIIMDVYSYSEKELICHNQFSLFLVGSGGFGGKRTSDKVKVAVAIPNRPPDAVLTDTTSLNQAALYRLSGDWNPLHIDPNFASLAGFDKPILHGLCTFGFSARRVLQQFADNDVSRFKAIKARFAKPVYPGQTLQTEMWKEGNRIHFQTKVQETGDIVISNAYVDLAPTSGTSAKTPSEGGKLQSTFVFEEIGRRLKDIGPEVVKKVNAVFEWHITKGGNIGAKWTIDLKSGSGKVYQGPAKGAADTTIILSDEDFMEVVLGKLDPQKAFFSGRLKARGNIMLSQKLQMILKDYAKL
# Biological target: Peroxisomal multifunctional enzyme type 2 (Homo sapiens) (UniProt P51659)
# Test: Extended Characterization of HPGD Inhibitors: Counterscreen Against HSD17b4
# Conditions: purified HSD17B4, estradiol/NAD+, NADH fluorescence; series mostly up to 57.1 µM
# Text: The central role of HPGD is to inactivate prostaglandins such as prostaglandin E2 (PGE2) or prostaglandin D2 (PGD2). These prostaglandins are involved in a number of processes, including inflammation, differentiation, and cellular signaling, which makes HPGD an important target for pharmacological intervention. The […] enzyme 17b-hydroxysteroid dehydrogenase […] (HSD17b4 catalyzes the NAD+-dependent oxidation of a variety of substrates including acyl-CoAs, androgens and neurosteroids, as well as bile acids. HSD17b4 activity was screened by utilizing an electron donor (estradiol) and NAD+ as an electron acceptor/cofactor. An increase in the fluorescence intensity due to conversion of NAD+ to NADH was used to measure the enzyme activity.. NIH Chemical Genomics Center [NCGC] NIH Molecular Libraries Probe Centers Network [MLPCN] MLPCN Grant: MH084681 Assay Submitter (PI): Structural Genomics Consortium
# 3 uL of enzyme (final concentration 100 nM) or buffer were dispensed into a 1,536-well solid-bottom black plate (Greiner Bio One, Monroe, NC) followed by pin-tool transfer (23 nL) of compound (final concentration range 324 pM to 57.2 uM) and control (CID-24867619, final concentration range 5.23 nM to 11.4 uM). Samples were incubated (RT, protected from light) for 15 minutes followed by a 1 uL substrate addition of NAD+ and Estradiol (final concentrations of 1 mM and 50 uM, respectively, in 15% DMSO). Plates were centrifuged at 1,000 rpm for 15 seconds, then read immediately on a ViewLux High-throughput CCD imager (Perkin-Elmer) equipped with standard UV fluorescence optics (340 nm excitation, 450 nm emission), incubated for 1 hour (RT, protected from light) followed by a second read. Data were normalized ([…]) against no-enzyme (positive) and enzyme-containing (neutral) wells.
row,SMILES,Potency
1,Cc1ccnc(NC(=S)N2CCCc3ccc(C(F)(F)F)cc32)c1,"inconclusive: 42.9 µM [inhibitor, single point]"
2,Cc1cc(-c2nnc3n2CCCCC3)c(C)n1-c1cccc(C(F)(F)F)c1,inactive
3,Cc1ccnc(C(=S)N2CCN(c3cccc(C(F)(F)F)c3)CC2)c1,inactive
4,S=C(Nc1cc(Cl)ccn1)N1CCN(c2ccc(Cl)cc2Cl)CC1,inactive
5,FC(F)(F)c1ccc(N2CCN(C(=S)Nc3ccccn3)CC2)cc1,inactive
6,Cc1cc(C)nc(NC(=S)N2CCN(c3cccc(C(F)(F)F)c3)CC2)c1,"inconclusive: 13.6 µM [inhibitor, partial curve]"
7,Cc1cc(C)nc(NC(=S)N2CCN(c3ccc4occc4c3)CC2)c1,"inconclusive: 21.5 µM [inhibitor, single point]"
8,Cc1cc(C)nc(NC(=S)N2CC3CN(c4ccc(Cl)cc4C(F)(F)F)CC3C2)c1 (stereo not given),inactive
9,FC(F)(F)c1cccc(N2CCN(C(=S)Nc3cc(C(F)(F)F)ccn3)CC2)c1,inactive
10,Cc1cc(C)nc(NC(=S)N2CCN(c3ccc(Cl)cc3F)CC2)c1,"inconclusive: 21.5 µM [inhibitor, partial curve]"
11,COc1cccc(NC(=S)N2CCN(c3cccc(C(F)(F)F)n3)CC2)n1,inactive
12,Cc1ccnc(NC(=S)N2CCN(c3cc(C(F)(F)F)cc(C(F)(F)F)c3)CC2)c1,active: 27.1 µM
13,Cc1cc(C)nc(NC(=S)N2CCN(c3ccc4cn(C)nc4c3)CC2)c1,"inconclusive: 24.1 µM [inhibitor, single point]"
14,Cc1cc(C)nc(NC(=S)N2CCN(c3cnc4nccn4c3)CC2)c1,"inconclusive: 30.4 µM [inhibitor, partial curve]"
15,Cc1cc(C)nc(NC(=S)N2CCN(c3ncccc3C#N)CC2)c1,inactive
16,Cc1ccnc(CC(=S)N2CCN(c3cccc(C(F)(F)F)c3)CC2)c1,"inconclusive: 24.1 µM [inhibitor, partial curve]"
17,Cc1cccc(NC(=S)N2CCN(c3cccc(C(F)(F)F)c3)CC2)c1,"inconclusive: 21.5 µM [inhibitor, partial curve]"
18,FC(F)(F)c1cccc(N2CCN(C(=S)Nc3nccc4ccccc34)CC2)c1,active: 27.1 µM
19,COC(=O)c1ccnc(NC(=S)N2CCN(c3cccc(C(F)(F)F)c3)CC2)c1,active: 17.1 µM
20,Cc1cc(C)nc(NC(=S)N2CCN(c3ccc4nonc4c3)CC2)c1,inactive

row,SMILES,Potency
1,FC(F)(F)c1cccc(N2CCN(C(=S)Nc3ncnc4ccccc34)CC2)c1,"inconclusive: 17.1 µM [inhibitor, partial curve]"
2,COc1cccc(NC(=S)N2CCN(c3ccc(Cl)c(Cl)c3)CC2)n1,"inconclusive: 21.5 µM [inhibitor, partial curve]"
3,Cc1ccnc(NC(=S)N2CCN(c3cccc(N(C)C)c3)CC2)c1,"inconclusive: 34.1 µM [inhibitor, single point]"
4,Cc1cc(C)nc(NC(=S)N2CCN(c3nccc(C(F)(F)F)n3)CC2)c1,"inconclusive: 19.2 µM [inhibitor, partial curve]"
5,Cc1cc(C)nc(NC(=S)N2CCN(c3ccc([N+](=O)[O-])cc3Cl)CC2)c1,active: 19.2 µM
6,FC(F)(F)c1cccc(N2CCN(C(=S)Nc3cnccn3)CC2)c1,active: 30.4 µM
7,COc1cc(NC(=S)N2CCN(c3cccc(C(F)(F)F)c3)CC2)nc2ccccc12,inactive
8,Cc1cc(C)nc(NC(=S)N2CCN(c3nccs3)CC2)c1,inactive
9,COc1cccc(NC(=S)N2CCN(c3cc(Cl)cc(Cl)c3)CC2)n1,inactive
10,Cc1ccc(N2CCN(C(=S)Nc3cc(C)ccn3)CC2)cc1,"inconclusive: 34.1 µM [inhibitor, partial curve]"
11,Cc1cc(C)nc(NC(=S)N2CCN(c3ccc(C(=O)O)cc3)CC2)c1,"inconclusive: 38.3 µM [inhibitor, partial curve]"
12,COc1ccnc(NC(=S)N2CCN(c3cccc(C(F)(F)F)n3)CC2)c1,inactive
13,Cc1cc(C)nc(NC(=S)N2CCN(c3ccc4c(c3)OCO4)CC2)c1,"inconclusive: 30.4 µM [inhibitor, single point]"
14,FC(F)(F)c1cccc(N2CCN(C(=S)Nc3ccncc3)CC2)c1,inactive
15,Cc1ccnc(NC(=S)N2CCN(c3ccc(N)cc3)CC2)c1,"inconclusive: 24.1 µM [inhibitor, single point]"
16,Cc1cc(C)nc(NC(=S)N2CCN(c3ccsc3)CC2)c1,"inconclusive: 30.4 µM [inhibitor, single point]"
17,COc1cccc(NC(=S)N2CCN(c3ccc(Cl)cc3Cl)CC2)n1,inactive
18,CSC(Cc1ccc(Cl)cc1)C(=O)Nc1ccc(Cl)cc1C(=O)O (stereo not given),"inconclusive: 27.1 µM [inhibitor, single point]"
19,CC(=O)c1ccc(N2CCN(C(=S)Nc3cc(C)ccn3)CC2)cc1,"inconclusive: 30.4 µM [inhibitor, single point]"
20,COc1cccc(NC(=S)N2CCN(c3ccc4ccccc4n3)CC2)n1,active: 27.1 µM

# Among those listed so far, these contain two or more sulfur atoms:
row,SMILES,Potency
8,Cc1cc(C)nc(NC(=S)N2CCN(c3nccs3)CC2)c1,inactive
16,Cc1cc(C)nc(NC(=S)N2CCN(c3ccsc3)CC2)c1,"inconclusive: 30.4 µM [inhibitor, single point]"

# Exported as tab-separated lines: 2 of the compounds above
row	SMILES	Potency
13	Cc1cc(C)nc(NC(=S)N2CCN(c3ccc4cn(C)nc4c3)CC2)c1	inconclusive: 24.1 µM [inhibitor, single point]
14	Cc1cc(C)nc(NC(=S)N2CCN(c3cnc4nccn4c3)CC2)c1	inconclusive: 30.4 µM [inhibitor, partial curve]
